The other results are listed elsewhere or left out. The main result of the screen is listed elsewhere. These columns were measured beside it and carry no call. Most of these compounds were active or inconclusive in the main read-out, so they are no random draw. Potencies come from curve fits of mixed quality, noted in brackets.
Experiment: qHTS Assay for Lipid Storage Modulators in Drosophila S3 Cells;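 on cell number change: cells counted by Cell Tracker Red CMTPX staining in the red channel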
Conditions: BODIPY lipid droplet fluorescence, 18-24 h; for cell number change: measured here: cell count max response, cells fed with added oleic acid
In short: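 Drosophila S3 cells got compounds at several concentrations plus oleic acid (400 uM solution). Laser-scanning cytometry with 488 nm excitation read lipid droplets at 500-530 nm and cells at 575-640 nm. Percent activity was relative to 20 uM Triacsin C.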

[1] = measured here: cell number channel AC50, cells fed with added oleic acid
[2] = measured here: lipid fluorescence (Fed channel) AC50, cells fed with added oleic acid

Row | Compound | cell number change [%] | AC50 [1] | AC50 [2]
1 | O=C(Cc1ccccc1F)Nc1cccc2cccnc12 | 10.6 | 4.11 µM [rising, single point] | –
2 | CCOC(=O)Cn1c(=O)oc2cc(S(=O)(=O)NC(C)c3ccccc3)ccc21 (centres undefined) | 24.1 | – | 0.00517 µM [falling, full curve, poor fit]
3 | CN1CCN(C(=O)c2cc([N+](=O)[O-])ccc2Cl)CC1 | 24.7 | – | –
4 | CCCC(O)(CCC)C(=O)NNc1ccc(C)cc1 | 18 | – | 0.259 µM [rising, full curve]
5 | O=C(NCc1cccnc1)c1ccccc1-c1nc(-c2ccccc2)no1 | 20.9 | – | 6.51 µM [rising, partial curve]
6 | CCCC(=O)NNc1cc(=O)c2c(=O)n(C)c(=O)n(C)c2[nH]1 | 8.79 | – | –
7 | CC(C)NC(=O)/C(=C/c1cn(-c2ccccc2)nc1-c1cccc([N+](=O)[O-])c1)NC(=O)c1ccccc1 | -2.73 | – | 9.2 µM [rising, single point]
8 | CCCCOc1ccc(OCCSc2nc3ccccc3n2CC(=O)O)cc1 | 10.8 | – | 8.2 µM [rising, partial curve]
9 | COc1ccc(-c2nc(NC(C)=O)sc2-c2ccccc2)cc1 | 120 | – | –
10 | O=[N+]([O-])c1cc([N+](=O)[O-])c2nonc2c1Nc1ccc(O)cc1 | -22.3 | – | 6.51 µM [rising, full curve, poor fit]
11 | O=C(NC1CCCCCC1)c1cc(-c2ccccn2)nc2ccccc12 | 35.5 | 0.146 µM [rising, partial curve, poor fit] | 0.731 µM [rising, full curve, poor fit]
12 | CCOc1ccc(N(C)S(=O)(=O)c2ccc3[nH]cc(C(=O)NCC4CCCO4)c(=O)c3c2)cc1 (centres undefined) | – | 0.092 µM [rising, full curve, poor fit] | –
13 | Cc1ccc(N2CC(C(=O)Nc3nnc(SCCC4OCCO4)s3)CC2=O)cc1 (centres undefined) | 33 | 8.91 µM [rising, partial curve, poor fit] | –
14 | Oc1ccc(Br)cc1CNc1cnc2ccccc2c1 | -22.6 | – | 14.6 µM [rising, partial curve]
15 | COc1cc(C)c(Cl)cc1S(=O)(=O)n1ccnc1 | -49.7 | – | –
16 | COC(=O)c1ccc(CSc2n[nH]c(=S)s2)o1 | 12.5 | – | –
17 | COc1ccc(CCNC(=O)CSc2n[nH]c(C)c2[N+](=O)[O-])cc1OC | – | – | 29.1 µM [rising, single point]
18 | N#CCCN(C(=O)COC(=O)COc1ccccc1Cc1ccccc1)c1ccccc1 | 2.18 | – | 4.11 µM [rising, single point]
19 | CCOc1ccc(NC(=O)c2ccc(NC(=O)CN3C(=O)C(=O)N(CC(C)C)C3=O)cc2)cc1 | – | – | 0.82 µM [falling, single point]
20 | C/C(=N\N=C(N)N)c1ccc(Cl)c(Cl)c1 | 46.2 | 0.116 µM [rising, full curve, poor fit] | 32.6 µM [rising, partial curve, poor fit]
21 | Cc1ccc(NC(=O)CCn2nc(C)cc2C)c(C)c1 | 10.8 | – | 0.206 µM [rising, partial curve]

Row | Compound | cell number change [%] | AC50 [1] | AC50 [2]
22 | N#Cc1ccc(NC(=O)c2cc(S(=O)(=O)N3CCOCC3)ccc2N2CCCC2)cc1 | -20 | – | –
23 | CC(C)CCNC(=O)CN(C(=O)CCC(=O)Nc1nccs1)C1CCCCC1 | – | – | 1.16 µM [falling, partial curve]
24 | Cc1cc(Nc2cc(F)ccc2C)n2nc(C)nc2n1 | 6.16 | 0.651 µM [rising, partial curve, poor fit] | –
25 | COc1ccc(/C=N/NC(=O)c2cccc(COCC(F)(F)C(F)F)c2)cc1 | 30.7 | 8.2 µM [rising, partial curve] | 10.3 µM [rising, partial curve]
26 | CCOC(=O)c1csc(NC(=O)c2ccc(S(=O)(=O)N(C)C)cc2)n1 | -9.35 | – | 0.206 µM [rising, partial curve, poor fit]
27 | CC1CN(C(=S)SCC(=O)c2ccc([N+](=O)[O-])cc2)CC(C)O1 (centres undefined) | 3.95 | – | –
28 | COCCn1cnc2c1c(=O)n(CC#N)c(=O)n2Cc1ccccc1 | 12.8 | – | 0.116 µM [falling, partial curve, poor fit]
29 | O=C(Nc1ccccc1Oc1cccnc1)C1CCCN(C/C=C/c2ccc(F)cc2)C1 (centres undefined) | -14.9 | 1.64 µM [rising, partial curve] | 29.1 µM [falling, single point]
30 | CCOC(=O)c1ccc(NC(=O)c2ccc[n+]([O-])c2)cc1 | – | 6.51 µM [rising, single point] | 0.731 µM [rising, partial curve]
31 | CN(Cc1ccc(OC(F)F)cc1)Cc1nc2c(Br)cc(Br)cc2c(=O)[nH]1 | 7.88 | – | 4.11 µM [rising, single point]
32 | Cc1cc(=O)oc2cc(OCC(=O)NCCCN3CCOCC3)ccc12 | -10.8 | – | 1.16 µM [falling, partial curve]
33 | Cc1oc(-c2ccc(Cl)cc2)nc1CN1CCCC(C(=O)NCc2ccccn2)C1 (centres undefined) | -2.52 | 0.00461 µM [falling, full curve, poor fit] | –
34 | O=C(CN(Cc1ccco1)S(=O)(=O)c1cccs1)Nc1ccccc1C(F)(F)F | -11.3 | – | 2.06 µM [falling, partial curve]
35 | CCCOC(=O)CSC1=C(C#N)C(c2ccccc2OC)C(C#N)C(=O)N1 (centres undefined) | 8.14 | – | –
36 | CC(C)Oc1ccccc1C1CC(=O)Nc2cc3c(cc21)OCCO3 (centres undefined) | -37.2 | 0.92 µM [falling, partial curve, poor fit] | –
37 | CCOC(=O)c1ccc(-c2c(-c3cc(OC)c(OC)c(OC)c3)noc2C)cc1F | -5.09 | – | 20.6 µM [rising, single point]
38 | COc1ccc(NC(C)C(=O)N/N=C/c2ccccc2OCc2ccc(Br)cc2)cc1 (centres undefined) | -35.4 | 6.51 µM [falling, partial curve] | 5.17 µM [falling, partial curve]
39 | COc1cc(S(=O)(=O)N2CCN(C(=O)c3ccccc3)CC2)c(OC)cc1Br | – | – | 6.51 µM [rising, single point]
40 | O=C(NC(=S)NC1C2CC3CC(C2)CC1C3)c1ccccc1 (centres undefined) | 63.7 | 20.6 µM [rising, partial curve] | 16.4 µM [rising, partial curve]
41 | C/C(CCC1CC(C)OC1=O)=N/Nc1nc(-c2ccccc2)cs1 (centres undefined) | 19.4 | 1.64 µM [rising, partial curve, poor fit] | 0.326 µM [rising, full curve]
42 | CC(=O)Nc1cccc(C(=O)OCC(=O)Nc2ccc(Cl)cn2)c1 | – | – | 0.651 µM [falling, single point]

2 successive records already listed:
Row | Compound | cell number change [%] | AC50 [1] | AC50 [2]
38 | COc1ccc(NC(C)C(=O)N/N=C/c2ccccc2OCc2ccc(Br)cc2)cc1 (centres undefined) | -35.4 | 6.51 µM [falling, partial curve] | 5.17 µM [falling, partial curve]
39 | COc1cc(S(=O)(=O)N2CCN(C(=O)c3ccccc3)CC2)c(OC)cc1Br | – | – | 6.51 µM [rising, single point]

(cont.)

Row | Compound | cell number change [%] | AC50 [1] | AC50 [2]
43 | COc1ccc(OC)c(S(=O)(=O)N(C)CC(=O)Nc2ccccc2OC)c1 | 22.1 | – | 2.91 µM [rising, full curve]
44 | CC(Nc1cc(=O)n(C)c(=O)[nH]1)c1ccccc1 (centres undefined) | -0.146 | – | –
45 | Cc1cccc(C)c1OCc1cc(C(=O)NCc2cn(C)nc2C)no1 | 53.4 | 15.8 µM [rising, partial curve] | 22.4 µM [rising, partial curve]
46 | O=C1/C(=C/c2ccc(O)c(O)c2)Oc2cc(O)ccc21 | -60.3 | 29.1 µM [falling, single point] | 29.1 µM [falling, single point]
47 | Cc1cc(C)c(C#N)c(SCC(=O)Nc2ccccc2C(N)=O)n1 | -14.9 | – | 29.1 µM [falling, single point]
48 | Cc1ccc(C(=O)/C=C/c2cc(C#N)n(C)c2C)cc1 | 12.4 | – | –
49 | Nc1ncc(-c2ccccc2)c(-c2ccc(O)cc2O)n1 | -10.3 | – | 0.731 µM [rising, partial curve]
50 | Nc1cc([N+](=O)[O-])ccc1Nc1ccccc1 | -26.4 | – | 0.116 µM [falling, full curve, poor fit]
51 | CC(Oc1ccc2c(c1)oc(=O)c1ccccc12)C(=O)NCCCN1CCOCC1 (centres undefined) | – | – | 29.1 µM [rising, single point]
52 | COc1ccc(OCC(=O)N/N=C(\C)CC(=O)Nc2cccc([N+](=O)[O-])c2)cc1 | -2.04 | – | –
53 | O=C(NCC(=O)N(CCc1ccccc1)C(C(=O)NC1CCCCC1)c1ccncc1)c1ccco1 (centres undefined) | -5.49 | – | –
54 | COCCNC(=O)C(=O)NCC1OCCN1S(=O)(=O)c1ccc(F)cc1 (centres undefined) | – | – | 13 µM [rising, partial curve]
55 | O=C(O)[C@H](Cc1ccccc1)NC(=O)N1CCN(c2cccc(C(F)(F)F)c2)CC1 | -16.6 | – | –
56 | O=S(=O)(Nc1cc2nc3ccccc3nc2n1Cc1ccccc1)c1ccc(Cl)cc1 | -0.833 | – | 18.4 µM [falling, partial curve]
57 | CCC1CCCCN1CCCNC(=O)c1ccc2c(c1)NC(=O)CN2C (centres undefined) | -32.1 | 25.9 µM [falling, single point] | –
58 | CC(=O)c1ccc(NC(=O)CSc2nccn2CCc2ccccc2)cc1 | 13.3 | – | –
59 | O=S(=O)([N-]c1nc2ccccc2nc1-n1cc[n+](Cc2ccccc2)c1)c1ccccc1 | – | 4.11 µM [rising, partial curve, poor fit] | 0.259 µM [rising, full curve]
60 | CCCCCCCNC(=O)C1(CC2CC(c3ccc(Cl)cc3)=NO2)CCN(C(=O)c2cc(OCC)c(OCC)c(OCC)c2)CC1 (centres undefined) | 48.9 | 25.9 µM [rising, partial curve] | –
61 | CCN(CC(=O)Nc1ccc(N2CCOCC2)cc1)C(=O)COc1ccccc1OC | 108 | – | –
62 | Cc1cc(NC(=O)COC(=O)CCNS(=O)(=O)c2cccc(C(F)(F)F)c2)no1 | 29.1 | – | –

Source: PubChem BioAssay AID2685 (National Center for Advancing Translational Sciences (NCATS), 2010)
